Experimental findings from paper doi:10.1101/043935 are described below.

Sequences of proteins named here, by UniProt entry; tags and fusion partners are left off.
UniProt Q07955: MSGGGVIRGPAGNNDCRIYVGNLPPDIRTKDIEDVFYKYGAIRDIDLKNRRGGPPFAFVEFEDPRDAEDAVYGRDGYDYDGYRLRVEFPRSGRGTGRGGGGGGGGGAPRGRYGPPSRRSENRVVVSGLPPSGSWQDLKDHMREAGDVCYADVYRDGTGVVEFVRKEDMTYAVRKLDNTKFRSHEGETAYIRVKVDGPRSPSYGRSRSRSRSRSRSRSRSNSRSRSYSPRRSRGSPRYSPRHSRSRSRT
UniProt O95793: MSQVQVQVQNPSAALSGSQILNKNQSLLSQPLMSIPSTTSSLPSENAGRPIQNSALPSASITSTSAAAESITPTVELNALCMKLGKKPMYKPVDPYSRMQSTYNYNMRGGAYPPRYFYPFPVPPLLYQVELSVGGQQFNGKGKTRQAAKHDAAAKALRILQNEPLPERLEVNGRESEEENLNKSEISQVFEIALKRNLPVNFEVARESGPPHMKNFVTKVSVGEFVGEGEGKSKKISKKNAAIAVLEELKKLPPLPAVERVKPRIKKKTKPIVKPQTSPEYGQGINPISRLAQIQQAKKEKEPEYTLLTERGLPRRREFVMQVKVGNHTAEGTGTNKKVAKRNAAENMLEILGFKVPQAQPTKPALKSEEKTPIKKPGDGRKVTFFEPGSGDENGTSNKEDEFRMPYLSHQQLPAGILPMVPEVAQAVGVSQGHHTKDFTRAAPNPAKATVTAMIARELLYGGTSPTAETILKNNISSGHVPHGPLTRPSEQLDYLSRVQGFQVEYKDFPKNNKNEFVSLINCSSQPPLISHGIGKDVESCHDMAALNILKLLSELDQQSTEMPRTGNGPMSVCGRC
UniProt Q9Y5B9: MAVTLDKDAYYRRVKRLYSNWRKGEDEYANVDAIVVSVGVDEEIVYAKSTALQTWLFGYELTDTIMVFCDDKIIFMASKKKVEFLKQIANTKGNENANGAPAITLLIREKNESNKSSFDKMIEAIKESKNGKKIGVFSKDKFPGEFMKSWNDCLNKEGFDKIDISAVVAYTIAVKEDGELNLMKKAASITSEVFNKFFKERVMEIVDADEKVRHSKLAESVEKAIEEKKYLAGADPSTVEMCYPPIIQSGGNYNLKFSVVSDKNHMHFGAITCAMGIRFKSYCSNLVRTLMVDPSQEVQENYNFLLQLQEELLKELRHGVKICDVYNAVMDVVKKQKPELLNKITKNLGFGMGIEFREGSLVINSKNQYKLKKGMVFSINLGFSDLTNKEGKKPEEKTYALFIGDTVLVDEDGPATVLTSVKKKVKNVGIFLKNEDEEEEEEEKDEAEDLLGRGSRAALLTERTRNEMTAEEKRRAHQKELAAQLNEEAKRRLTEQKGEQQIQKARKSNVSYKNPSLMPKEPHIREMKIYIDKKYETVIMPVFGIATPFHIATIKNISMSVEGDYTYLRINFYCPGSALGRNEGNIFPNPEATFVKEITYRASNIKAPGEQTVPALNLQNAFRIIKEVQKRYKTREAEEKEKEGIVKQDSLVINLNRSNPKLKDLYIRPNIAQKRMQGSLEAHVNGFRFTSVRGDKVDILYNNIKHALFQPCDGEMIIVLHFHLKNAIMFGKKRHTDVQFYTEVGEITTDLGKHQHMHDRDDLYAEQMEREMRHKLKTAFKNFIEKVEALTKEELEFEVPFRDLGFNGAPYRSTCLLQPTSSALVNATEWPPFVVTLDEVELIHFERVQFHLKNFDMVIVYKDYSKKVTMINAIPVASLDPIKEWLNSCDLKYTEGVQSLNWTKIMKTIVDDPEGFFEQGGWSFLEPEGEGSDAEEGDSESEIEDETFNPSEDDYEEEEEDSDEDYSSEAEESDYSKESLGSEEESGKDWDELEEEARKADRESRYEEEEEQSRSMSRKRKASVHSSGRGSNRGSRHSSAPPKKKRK
UniProt Q14690: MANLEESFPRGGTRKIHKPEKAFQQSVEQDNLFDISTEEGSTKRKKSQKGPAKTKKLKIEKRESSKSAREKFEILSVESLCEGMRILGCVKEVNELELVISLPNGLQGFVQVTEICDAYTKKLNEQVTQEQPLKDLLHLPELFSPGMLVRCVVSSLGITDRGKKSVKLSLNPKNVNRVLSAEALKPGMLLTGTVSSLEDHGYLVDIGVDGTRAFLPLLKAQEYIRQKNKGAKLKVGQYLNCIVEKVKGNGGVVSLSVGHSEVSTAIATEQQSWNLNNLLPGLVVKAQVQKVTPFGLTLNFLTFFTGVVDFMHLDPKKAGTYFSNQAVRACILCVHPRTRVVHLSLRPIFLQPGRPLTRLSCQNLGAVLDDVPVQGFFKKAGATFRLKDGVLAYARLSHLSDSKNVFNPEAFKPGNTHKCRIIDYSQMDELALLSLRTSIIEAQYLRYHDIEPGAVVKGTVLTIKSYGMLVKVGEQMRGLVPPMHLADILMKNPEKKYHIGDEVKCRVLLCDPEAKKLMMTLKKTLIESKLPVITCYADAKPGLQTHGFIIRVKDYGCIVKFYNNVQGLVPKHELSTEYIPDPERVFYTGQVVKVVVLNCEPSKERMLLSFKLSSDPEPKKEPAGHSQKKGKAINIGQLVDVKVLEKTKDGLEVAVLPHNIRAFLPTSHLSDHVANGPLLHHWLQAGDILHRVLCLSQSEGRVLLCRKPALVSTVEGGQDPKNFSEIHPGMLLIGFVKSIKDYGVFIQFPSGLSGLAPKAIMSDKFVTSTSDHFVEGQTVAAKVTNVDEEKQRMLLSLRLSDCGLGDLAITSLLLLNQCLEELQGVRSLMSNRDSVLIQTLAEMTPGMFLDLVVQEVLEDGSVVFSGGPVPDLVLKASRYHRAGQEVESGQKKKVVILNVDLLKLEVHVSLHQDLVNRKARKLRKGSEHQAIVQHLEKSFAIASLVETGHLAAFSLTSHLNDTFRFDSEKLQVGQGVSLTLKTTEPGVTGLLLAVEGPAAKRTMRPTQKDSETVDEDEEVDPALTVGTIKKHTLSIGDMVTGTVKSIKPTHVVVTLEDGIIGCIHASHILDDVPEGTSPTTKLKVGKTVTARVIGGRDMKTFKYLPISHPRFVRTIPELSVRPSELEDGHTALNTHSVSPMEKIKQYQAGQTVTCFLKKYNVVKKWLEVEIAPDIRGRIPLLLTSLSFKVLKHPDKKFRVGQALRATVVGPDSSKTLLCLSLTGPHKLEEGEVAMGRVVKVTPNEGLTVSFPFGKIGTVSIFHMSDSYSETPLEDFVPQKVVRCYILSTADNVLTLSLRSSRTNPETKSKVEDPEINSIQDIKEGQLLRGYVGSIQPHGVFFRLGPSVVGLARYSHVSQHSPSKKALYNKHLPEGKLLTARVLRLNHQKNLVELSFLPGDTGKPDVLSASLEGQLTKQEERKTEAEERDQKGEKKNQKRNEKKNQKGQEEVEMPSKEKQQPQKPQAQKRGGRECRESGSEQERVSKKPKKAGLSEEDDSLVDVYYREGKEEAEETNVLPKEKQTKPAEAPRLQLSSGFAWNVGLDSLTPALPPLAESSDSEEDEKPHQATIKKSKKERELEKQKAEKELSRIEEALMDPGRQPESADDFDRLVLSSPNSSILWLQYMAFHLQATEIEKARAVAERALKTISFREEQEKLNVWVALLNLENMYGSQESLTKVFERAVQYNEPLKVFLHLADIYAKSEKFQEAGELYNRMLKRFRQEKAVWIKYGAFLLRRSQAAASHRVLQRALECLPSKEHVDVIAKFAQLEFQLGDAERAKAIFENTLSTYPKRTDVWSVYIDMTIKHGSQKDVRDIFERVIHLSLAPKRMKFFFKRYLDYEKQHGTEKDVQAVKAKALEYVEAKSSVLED
UniProt P62136: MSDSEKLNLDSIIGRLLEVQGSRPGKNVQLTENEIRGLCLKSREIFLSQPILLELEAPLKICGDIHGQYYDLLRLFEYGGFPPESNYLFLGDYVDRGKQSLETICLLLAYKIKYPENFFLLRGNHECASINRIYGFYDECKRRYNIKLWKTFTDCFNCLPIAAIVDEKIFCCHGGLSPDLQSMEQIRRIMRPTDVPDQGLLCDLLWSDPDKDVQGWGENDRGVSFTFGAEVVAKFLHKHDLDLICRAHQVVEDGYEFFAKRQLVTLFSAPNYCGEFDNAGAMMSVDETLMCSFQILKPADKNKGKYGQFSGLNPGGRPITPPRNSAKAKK
UniProt Q92841: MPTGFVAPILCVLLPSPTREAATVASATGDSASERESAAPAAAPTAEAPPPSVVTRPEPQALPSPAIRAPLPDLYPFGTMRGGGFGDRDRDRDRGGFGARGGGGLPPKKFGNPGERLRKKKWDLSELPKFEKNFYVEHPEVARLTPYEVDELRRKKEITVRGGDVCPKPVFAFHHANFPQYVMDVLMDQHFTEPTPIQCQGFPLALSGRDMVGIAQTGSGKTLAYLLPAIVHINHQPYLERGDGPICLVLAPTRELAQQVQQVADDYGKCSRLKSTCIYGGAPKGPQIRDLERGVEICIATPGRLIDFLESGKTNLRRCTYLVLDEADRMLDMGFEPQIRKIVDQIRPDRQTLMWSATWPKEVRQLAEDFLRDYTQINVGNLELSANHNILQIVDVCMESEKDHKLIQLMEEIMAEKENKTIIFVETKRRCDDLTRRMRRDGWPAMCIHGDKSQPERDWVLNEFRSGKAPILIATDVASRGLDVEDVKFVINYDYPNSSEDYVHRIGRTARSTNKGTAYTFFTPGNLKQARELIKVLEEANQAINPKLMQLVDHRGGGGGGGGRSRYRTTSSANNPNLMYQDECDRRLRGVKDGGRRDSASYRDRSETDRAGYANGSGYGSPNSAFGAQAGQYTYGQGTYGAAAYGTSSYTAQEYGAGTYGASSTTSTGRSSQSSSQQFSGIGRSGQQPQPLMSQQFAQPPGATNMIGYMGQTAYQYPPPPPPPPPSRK
UniProt Q08945: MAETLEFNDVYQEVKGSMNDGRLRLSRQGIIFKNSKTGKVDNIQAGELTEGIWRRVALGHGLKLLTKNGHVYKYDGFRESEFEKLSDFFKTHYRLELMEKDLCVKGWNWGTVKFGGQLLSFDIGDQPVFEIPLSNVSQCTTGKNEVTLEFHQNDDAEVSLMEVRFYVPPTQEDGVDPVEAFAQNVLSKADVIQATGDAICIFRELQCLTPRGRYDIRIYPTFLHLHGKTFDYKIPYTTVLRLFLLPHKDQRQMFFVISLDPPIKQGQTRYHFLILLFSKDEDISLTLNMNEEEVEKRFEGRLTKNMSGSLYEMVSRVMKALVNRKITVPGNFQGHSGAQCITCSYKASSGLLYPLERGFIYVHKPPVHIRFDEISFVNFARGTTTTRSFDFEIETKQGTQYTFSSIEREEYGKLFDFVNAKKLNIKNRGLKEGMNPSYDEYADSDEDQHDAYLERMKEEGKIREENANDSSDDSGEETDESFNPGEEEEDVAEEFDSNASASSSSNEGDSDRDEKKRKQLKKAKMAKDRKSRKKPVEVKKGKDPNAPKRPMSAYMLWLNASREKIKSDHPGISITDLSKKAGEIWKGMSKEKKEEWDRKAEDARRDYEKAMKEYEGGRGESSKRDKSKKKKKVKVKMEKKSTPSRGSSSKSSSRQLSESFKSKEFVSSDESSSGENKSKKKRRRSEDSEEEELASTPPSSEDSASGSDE
UniProt P17844: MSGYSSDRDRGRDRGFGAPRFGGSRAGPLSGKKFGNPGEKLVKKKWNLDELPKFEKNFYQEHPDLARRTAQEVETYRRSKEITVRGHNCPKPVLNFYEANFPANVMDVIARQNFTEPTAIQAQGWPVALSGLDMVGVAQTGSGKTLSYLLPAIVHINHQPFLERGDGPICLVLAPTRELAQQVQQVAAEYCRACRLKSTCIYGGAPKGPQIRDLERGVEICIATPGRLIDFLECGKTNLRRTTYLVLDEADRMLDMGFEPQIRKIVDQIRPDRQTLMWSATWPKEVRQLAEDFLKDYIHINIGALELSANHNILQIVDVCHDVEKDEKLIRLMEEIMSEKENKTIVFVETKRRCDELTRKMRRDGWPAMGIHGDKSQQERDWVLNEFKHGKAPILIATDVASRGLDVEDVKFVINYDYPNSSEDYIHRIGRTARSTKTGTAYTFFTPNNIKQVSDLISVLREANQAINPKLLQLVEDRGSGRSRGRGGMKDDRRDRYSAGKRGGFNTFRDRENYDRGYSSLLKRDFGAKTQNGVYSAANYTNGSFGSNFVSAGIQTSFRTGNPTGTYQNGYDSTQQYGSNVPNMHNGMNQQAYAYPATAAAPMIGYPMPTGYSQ
UniProt P68400: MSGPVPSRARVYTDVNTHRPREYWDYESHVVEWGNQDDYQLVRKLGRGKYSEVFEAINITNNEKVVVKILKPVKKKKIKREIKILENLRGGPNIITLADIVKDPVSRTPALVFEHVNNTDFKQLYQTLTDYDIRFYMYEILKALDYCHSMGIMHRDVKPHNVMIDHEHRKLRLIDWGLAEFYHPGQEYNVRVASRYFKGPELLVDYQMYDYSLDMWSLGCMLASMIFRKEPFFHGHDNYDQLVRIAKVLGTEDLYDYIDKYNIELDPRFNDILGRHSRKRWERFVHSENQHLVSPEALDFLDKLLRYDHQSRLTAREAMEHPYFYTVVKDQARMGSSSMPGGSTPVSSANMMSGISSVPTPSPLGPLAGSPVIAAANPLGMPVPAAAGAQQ

Test [1] deals with T1, Protein A-tagged Nol12 (human) (UniProt Q9UGY1).
T1 sequence: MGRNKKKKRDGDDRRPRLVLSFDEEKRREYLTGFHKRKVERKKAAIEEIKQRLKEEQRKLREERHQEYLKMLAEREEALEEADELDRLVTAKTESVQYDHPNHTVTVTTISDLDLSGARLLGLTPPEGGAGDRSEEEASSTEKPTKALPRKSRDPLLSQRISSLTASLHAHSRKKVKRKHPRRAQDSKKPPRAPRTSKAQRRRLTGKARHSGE
The test can be described thus: affinity purification with mass spectrometry.

The target in test [2] is T1, Protein A-tagged Nol12 (human). The test can be described thus: affinity purification with mass spectrometry. The source holds these as a separate data set.

Where two headings read alike, the source gives them in different places. These are yes or no findings as the source states them, for the method shown. Binding seen in cells or lysates may run through a third protein. A yes stands for co-enrichment or nearness to the bait. Other partners may have been found. Tags and fused reporters may be left off the sequences shown.

Regarding Srsf1 (from UniProt Q07955 1-248), the binding result in test [1] is “binds”.

For Stau1 (from UniProt O95793 1-577), the binding result in test [1] is recorded as “binds”.

Regarding snRNP200 (from UniProt O75643 1-2136), the binding entry in test [1] was “binds”.

As to “PRKDC, the catalytic component of DNA-PK (from UniProt P78527 1-4128)”, in test [1], the binding result is on record as “binds”.

SUPT16H (from UniProt Q9Y5B9 1-1047): the binding entry in test [1] is on record as “binds”.

For Rrp5 (from UniProt Q14690 1-1871), the binding result in test [1] is given as “binds”.

On to “phosphatase PP1A (from UniProt P62136 1-330)”, for which the binding entry in test [1] is “binds”.

As for Ddx17 (from UniProt Q92841 1-729), the binding result in test [1] is on record as “binds”.

On to SSRP1 (from UniProt Q08945 1-709), for which the binding result in test [1] is on record as “binds”.

Take Ddx5 (from UniProt P17844 1-614): in test [1], the binding entry is listed as “binds”.

Consider Ddx21 (from UniProt Q9NR30 1-783), for which the binding result in test [1] is given as “binds”.

“CKII subunit CSNK2A1 (from UniProt P68400 1-391)”: in test [1], the binding entry is on record as “binds”.

For Utp10 (from UniProt Q9H583 1-2144), the binding result in test [1] is recorded as “binds”.

B1: Xrn2 (protein, UniProt Q9H0D6 1-950)
chain: MGVPAFFRWLSRKYPSIIVNCVEEKPKECNGVKIPVDASKPNPNDVEFDNLYLDMNGIIHPCTHPEDKPAPKNEDEMMVAIFEYIDRLFSIVRPRRLLYMAIDGVAPRAKMNQQRSRRFRASKEGMEAAVEKQRVREEILAKGGFLPPEEIKERFDSNCITPGTEFMDNLAKCLRYYIADRLNNDPGWKNLTVILSDASAPGEGEHKIMDYIRRQRAQPNHDPNTHHCLCGADADLIMLGLATHEPNFTIIREEFKPNKPKPCGLCNQFGHEVKDCEGLPREKKGKHDELADSLPCAEGEFIFLRLNVLREYLERELTMASLPFTFDVERSIDDWVFMCFFVGNDFLPHLPSLEIRENAIDRLVNIYKNVVHKTGGYLTESGYVNLQRVQMIMLAVGEVEDSIFKKRKDDEDSFRRRQKEKRKRMKRDQPAFTPSGILTPHALGSRNSPGSQVASNPRQAAYEMRMQNNSSPSISPNTSFTSDGSPSPLGGIKRKAEDSDSEPEPEDNVRLWEAGWKQRYYKNKFDVDAADEKFRRKVVQSYVEGLCWVLRYYYQGCASWKWYYPFHYAPFASDFEGIADMPSDFEKGTKPFKPLEQLMGVFPAASGNFLPPSWRKLMSDPDSSIIDFYPEDFAIDLNGKKYAWQGVALLPFVDERRLRAALEEVYPDLTPEETRRNSLGGDVLFVGKHHPLHDFILELYQTGSTEPVEVPPELCHGIQGKFSLDEEAILPDQIVCSPVPMLRDLTQNTVVSINFKDPQFAEDYIFKAVMLPGARKPAAVLKPSDWEKSSNGRQWKPQLGFNRDRRPVHLDQAAFRTLGHVMPRGSGTGIYSNAAPPPVTYQGNLYRPLLRGQAQIPKLMSNMRPQDSWRGPPPLFQQQRFDRGVGAEPLLPWNRMLQTQNAAFQPNQYQMLAGPGGYPPRRDDRGGRQGYPREGRKYPLPPPSGRYNWN
In the case of B1, the binding entry in test [2] is given as “binds weakly”.

B2: Ftsj3 (protein, UniProt Q8IY81 1-847)
chain: MGKKGKVGKSRRDKFYHLAKETGYRSRSAFKLIQLNRRFQFLQKARALLDLCAAPGGWLQVAAKFMPVSSLIVGVDLVPIKPLPNVVTLQQDITTERCRQALRKELKTWKVDVVLNDGAPNVGASWVHDAYSQAHLTLMALRLACDFLARGGSFITKVFRSRDYQPLLWIFQQLFRRVQATKPQASRHESAEIFVVCQGFLAPDKVDSKFFDPKFAFKEVEVQAKTVTELVTKKKPKAEGYAEGDLTLYHRTSVTDFLRAANPVDFLSKASEIMVDDEELAQHPATTEDIRVCCQDIRVLGRKELRSLLNWRTKLRRYVAKKLKEQAKALDISLSSGEEDEGDEEDSTAGTTKQPSKEEEEEEEEEQLNQTLAEMKAQEVAELKRKKKKLLREQRKQRERVELKMDLPGVSIADEGETGMFSLSTIRGHQLLEEVTQGDMSAADTFLSDLPRDDIYVSDVEDDGDDTSLDSDLDPEELAGVRGHQGLRDQKRMRLTEVQDDKEEEEEENPLLVPLEEKAVLQEEQANLWFSKGSFAGIEDDADEALEISQAQLLFENRRKGRQQQQKQQLPQTPPSCLKTEIMSPLYQDEAPKGTEASSGTEAATGLEGEEKDGISDSDSSTSSEEEESWEPLRGKKRSRGPKSDDDGFEIVPIEDPAKHRILDPEGLALGAVIASSKKAKRDLIDNSFNRYTFNEDEGELPEWFVQEEKQHRIRQLPVGKKEVEHYRKRWREINARPIKKVAEAKARKKRRMLKRLEQTRKKAEAVVNTVDISEREKVAQLRSLYKKAGLGKEKRHVTYVVAKKGVGRKVRRPAGVRGHFKVVDSRMKKDQRAQQRKEQKKKHKRK
As to B2, the binding entry in test [2] is reported as “binds”.

B3: MYBBP1A (protein, UniProt Q9BQG0 1-1328)
chain: MESRDPAQPMSPGEATQSGARPADRYGLLKHSREFLDFFWDIAKPEQETRLAATEKLLEYLRGRPKGSEMKYALKRLITGLGVGRETARPCYSLALAQLLQSFEDLPLCSILQQIQEKYDLHQVKKAMLRPALFANLFGVLALFQSGRLVKDQEALMKSVKLLQALAQYQNHLQEQPRKALVDILSEVSKATLQEILPEVLKADLNIILSSPEQLELFLLAQQKVPSKLKKLVGSVNLFSDENVPRLVNVLKMAASSVKKDRKLPAIALDLLRLALKEDKFPRFWKEVVEQGLLKMQFWPASYLCFRLLGAALPLLTKEQLHLVMQGDVIRHYGEHVCTAKLPKQFKFAPEMDDYVGTFLEGCQDDPERQLAVLVAFSSVTNQGLPVTPTFWRVVRFLSPPALQGYVAWLRAMFLQPDLDSLVDFSTNNQKKAQDSSLHMPERAVFRLRKWIIFRLVSIVDSLHLEMEEALTEQVARFCLFHSFFVTKKPTSQIPETKHPFSFPLENQAREAVSSAFFSLLQTLSTQFKQAPGQTQGGQPWTYHLVQFADLLLNHSHNVTTVTPFTAQQRQAWDRMLQTLKELEAHSAEARAAAFQHLLLLVGIHLLKSPAESCDLLGDIQTCIRKSLGEKPRRSRTKTIDPQEPPWVEVLVEILLALLAQPSHLMRQVARSVFGHICSHLTPRALQLILDVLNPETSEDENDRVVVTDDSDERRLKGAEDKSEEGEDNRSSESEEESEGEESEEEERDGDVDQGFREQLMTVLQAGKALGGEDSENEEELGDEAMMALDQSLASLFAEQKLRIQARRDEKNKLQKEKALRRDFQIRVLDLVEVLVTKQPENALVLELLEPLLSIIRRSLRSSSSKQEQDLLHKTARIFTHHLCRARRYCHDLGERAGALHAQVERLVQQAGRQPDSPTALYHFNASLYLLRVLKGNTAEGCVHETQEKQKAGTDPSHMPTGPQAASCLDLNLVTRVYSTALSSFLTKRNSPLTVPMFLSLFSRHPVLCQSLLPILVQHITGPVRPRHQACLLLQKTLSMREVRSCFEDPEWKQLMGQVLAKVTENLRVLGEAQTKAQHQQALSSLELLNVLFRTCKHEKLTLDLTVLLGVLQGQQQSLQQGAHSTGSSRLHDLYWQAMKTLGVQRPKLEKKDAKEIPSATQSPISKKRKKKGFLPETKKRKKRKSEDGTPAEDGTPAATGGSQPPSMGRKKRNRTKAKVPAQANGTPTTKSPAPGAPTRSPSTPAKSPKLQKKNQKPSQVNGAPGSPTEPAGQKQHQKALPKKGVLGKSPLSALARKKARLSLVIRSPSLLQSGAKKKAQVRKAGKP
Regarding B3, the binding result in test [2] was “binds”.

B4: Rcl1 (protein, UniProt Q9Y2P8 1-373)
chain: MATQAHSLSYAGCNFLRQRLVLSTLSGRPVKIRKIRARDDNPGLRDFEASFIRLLDKITNGSRIEINQTGTTLYYQPGLLYGGSVEHDCSVLRGIGYYLESLLCLAPFMKHPLKIVLRGVTNDQVDPSVDVLKATALPLLKQFGIDGESFELKIVRRGMPPGGGGEVVFSCPVRKVLKPIQLTDPGKIKRIRGMAYSVRVSPQMANRIVDSARSILNKFIPDIYIYTDHMKGVNSGKSPGFGLSLVAETTSGTFLSAELASNPQGQGAAVLPEDLGRNCARLLLEEIYRGGCVDSTNQSLALLLMTLGQQDVSKVLLGPLSPYTIEFLRHLKSFFQIMFKIETKPCGEELKGGDKVLMTCVGIGFSNLSKTLK
As to B4, the binding result in test [2] is reported as “binds weakly”.

B5: NONO (protein, UniProt Q15233 1-471)
chain: MQSNKTFNLEKQNHTPRKHHQHHHQQQHHQQQQQQPPPPPIPANGQQASSQNEGLTIDLKNFRKPGEKTFTQRSRLFVGNLPPDITEEEMRKLFEKYGKAGEVFIHKDKGFGFIRLETRTLAEIAKVELDNMPLRGKQLRVRFACHSASLTVRNLPQYVSNELLEEAFSVFGQVERAVVIVDDRGRPSGKGIVEFSGKPAARKALDRCSEGSFLLTTFPRPVTVEPMDQLDDEEGLPEKLVIKNQQFHKEREQPPRFAQPGSFEYEYAMRWKALIEMEKQQQDQVDRNIKEAREKLEMEMEAARHEHQVMLMRQDLMRRQEELRRMEELHNQEVQKRKQLELRQEEERRRREEEMRRQQEEMMRRQQEGFKGTFPDAREQEIRMGQMAMGGAMGINNRGAMPPAPVPAGTPAPPGPATMMPDGTLGLTPPTTERFGQAATMEGIGAIGGTPPAFNRAAPGAEFAPNKRRRY
As to B5, the binding result in test [2] is given as “binds”.
